Results from patent EP4713368A1.
These are yes or no findings as the source states them, for the method shown. Some binding calls cover weakened binding; strength is not graded here.

Protein sequences, listed by entry. Tags and fused reporters are not part of them. Lines headed by an entry give the natural chain unless they say otherwise; changes in a name come on top.
UniProt P10747: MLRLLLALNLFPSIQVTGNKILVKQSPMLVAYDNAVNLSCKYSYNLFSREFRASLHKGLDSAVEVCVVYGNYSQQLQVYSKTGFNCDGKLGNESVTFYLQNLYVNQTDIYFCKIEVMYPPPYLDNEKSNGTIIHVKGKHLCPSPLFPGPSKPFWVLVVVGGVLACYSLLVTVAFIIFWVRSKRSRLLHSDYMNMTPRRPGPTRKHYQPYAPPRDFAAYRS

B1: Ab No. 70e (antibody, V domains shown)
VH: EVQLLESGGGLVQPGGSLRLSCAASGFDFANYAMSWVRQAPGKERELVSAISGSGGSTYYADSVKGRFTISRDNSKNTLYLQMNSLRAEDTAVYYCAAHASGSYYLDASRDYDADYWGQGTQVTVSS
B2: Ab No. 70f (antibody, V domains shown)
VH: EVQLLESGGGLVQPGGSLRLSCAASGFTFSSYAMSWVRQAPGKERELVSAISGSGGSTYYADSVKGRFTISRDNSKNTLYLQMNSLRAEDTAVYYCAAHASGSYYLDASRDYDADYWGQGTQVTVSS
B3: Ab No. 83a (antibody, V domains shown)
VH: EVQLLESGGGLVQPGGSLRLSCAASGFTFSDTVMNWYRQAPGKEGELVSAISRSGDNTYYADSVKGRFTISRDNSKNTLYLQMNSLRAEDTAVYYCNARRYQSSGGDVWGQGTQVTVSS
B4: Ab No. 83b (antibody, V domains shown)
VH: EVQLLESGGGLVQPGGSLRLSCAASGFTFTASAMTWYRQAPGKERELVSAISGSGSDTYYADSVKGRFTISRDNSKNTLYLQMNSLRAEDTAVYYCNARRYQSSGGDVWGQGTQVTVSS
B5: Ab No. 83c (antibody, V domains shown)
VH: EVQLLESGGGLVQPGGSLRLSCAASGFTFSSNVMTWYRQAPGKERELVSAISGSGSDTYYADSVKGRFTISRDNSKNTLYLQMNSLRAEDTAVYYCNARRYQSSGGDVWGQGTQVTVSS
B6: Ab No. 83d (antibody, V domains shown)
VH: EVQLLESGGGLVQPGGSLRLSCAASGFTFSDHSMNWYRQAPGKERELVSAISGGGEGTYYADSVKGRFTISRDNSKNTLYLQMNSLRAEDTAVYYCNARRYQSSGGDVWGQGTQVTVSS
B7: Ab No. 83e (antibody, V domains shown)
VH: EVQLLESGGGLVQPGGSLRLSCAASGFTFSSNTMTWYRQAPGKERELVSAISKSGDDTYYADSVKGRFTISRDNSKNTLYLQMNSLRAEDTAVYYCNARRYQSSGGDVWGQGTQVTVSS
B8: Ab No. 31 (antibody, V domains shown)
VH: QLQLQESGPGLVKPSETLSLTCTVSGGSISSSDYYWGWIRQPPGKGLEWIGSIYYSGSTYYNPSLKSRVTISVDTSKNQFSLKLSSVTAADTAVYYCAKVTAIASAFSHWGQGTLVTVSS
VL: EIVMTQSPATLSVSPGERATLSCRASQSVGSNLAWYQQKPGQAPRLLIYGASTRATGIPARFSGSGSGTEFTLTISSLQSEDFAVYYCQQVNYHPITFGGGTKVEIK
B9: Ab No. 32 (antibody, V domains shown)
VH: QVQLQESGPGLVKPSQTLSLTCTVSGGSISSSDYYWGWIRQPPGKGLEWIGSIYYSGSTYYNPSLKSRVTISVDTSKNQFSLKLSSVTAADTAVYYCARAYGSSGAFDHWGQGTLVTVSS
VL: DIQMTQSPSSVSASVGDRVTITCRASQGISSWLAWYQQKPGKAPKLLIYAASSLQSGVPSRFSGSGSGTDFTLTISSLQPEDFATYYCQQANSHPPTFGGGTKVEIK
B10: Ab No. 33 (antibody, V domains shown)
VH: QVQLQESGPGLVKPSETLSLTCTVSGGSISSSDYYWGWIRQPPGKGLEWIGSIYYSGSTYYNPSLKSRVTISVDTSKNQFSLKLSSVTAADTAVYYCARIEAAAASATHWGQGTLVTVSS
VL: DIQMTQSPSSVSASVGDRVTITCRASQGISSWLAWYQQKPGKAPKLLIYAASSLQSGVPSRFSGSGSGTDFTLTISSLQPEDFATYYCQQANYHPPTFGGGTKVEIK
B11: Ab No. 34 (antibody, V domains shown)
VH: QLQLQESGPGLVKPSETLSLTCTVSGGSISSSDYYWGWIRQPPGKGLEWIGSIYYSGSTYYNPSLKSRVTISVDTSKNQFSLKLSSVTAADTAVYYCARISDRSGTAQDYWGQGTLVTVSS
VL: DIQMTQSPSSVSASVGDRVTITCRASQGISSWLAWYQQKPGKAPKLLIYAASSLQSGVPSRFSGSGSGTDFTLTISSLQPEDFATYYCQQAFSHPTFGGGTKVEIK
B12: Ab No. 35 (antibody, V domains shown)
VH: QLQLQESGPGLVKPSETLSLTCTVSGGSISSSDYYWGWIRQPPGKGLEWIGSIYYSGSTYYNPSLKSRVTISVDTSKNQFSLKLSSVAAADTAVYYCARVEGDSGSQVYWGQGTLVTVSS
VL: EIVMTQSPATLSVSPGERATLSCRASQSVSSNLAWYQQKPGQAPRLLIYGASTRATGIPARFSGSGSGTEFTLTISSLQSEDFAVYYCQQANYFPPTFGGGTKVEIK
B13: Ab No. 36 (antibody, V domains shown)
VH: QLQLQESGPGLVKPSETLSLTCTVSGGSISSSDYYWGWIRQPPGKGLEWIGSIYYSGSTYYNPSLKSRVTISVDTSKNQFSLKLSSVTAADTAVYYCARVWGESGVTADWGQGTLVTVSS
VL: EIVMTQSPATLSVSPGERATLSCRASQSVSSNLAWYQQKPGQAPRLLIYGASTRATGIPARFSGSGSGTEFTLTISSLQSEDFAVYYCQQANFFPPTFGGGTKVEIK
B14: Ab No. 37 (antibody, V domains shown)
VH: QLQLQESGPGLVKPPETLSLTCTVSGGSISSSDYYWGWIRQPPGKGLEWIGSIYYSGSTYYNPSLKSRVTISVDTSKNQFSLKLSSVTAADTAVYYCTRVASDYAVEQDWGQGTLVTVSS
VL: DIQMTQSPSSLSASVGDRVTITCRASQSISSYLNWYQQKPGKAPKLLISAASSLQSGVPSRFSGSGSGTDFTLTISSLQPEDFATYYCQQSSHSPITFGGGTKVEIK
B15: Ab No. 38 (antibody, V domains shown)
VH: QVQLQESGPGLVKPSGTLSLTCAVSGGSISSSNWWSWVRQPPGKGLEWIGEIYHSGSTNYNPSLKSRVTISVDKSKNQFSLKLSSVTAADTAVYYCARAYYGYSGTPYNWFDSWGQGTLVTVSS
VL: DIQMTQSPSSLSASVGDRVTITCRASQSISSYLNWYQQKPGKAPKLLIYAASSLQSGVPSRFSGSGSGTDFTLTISSLQPEDFATYYCQQTVSDPITFGGGTKVEIK
B16: Ab No. 39 (antibody, V domains shown)
VH: QVQLQESGPGLVKPSETLSLTCTVSGGSFSGYYWSWIRQPPGKGLEWIGEIDHSGSTNYNPSLKSRVTISVDTSKNQFSLKLSSVTAADTAVYYCARDLGRGFSYYPWGQGTLVTVSS
VL: EIVMTQSPATLSVSPGERATLSCRASQSVSSNLAWYQQKPGQAPRLLIYGASTRATGIPARFSGSGSGTEFTLTISSLQSEDFAVYYCQQFNAFPITFGGGTKVEIK
B17: Ab No. 49 (antibody, V domains shown)
VH: EVQLLESGGGLVQPGGSLRLSCAASGFTFSSYAMSWVRQAPGKGLEWVSAISGSGGSTYYADSVKGRFTISRDNSKNTLYLQMNSLRAEDTAVYYCVRAPGIAAAEYSFDFWGQGTLVTVSS
VL: QSALTQPRSVSGSPGQSVTISCTGTSSDVGGYNYVSWYQQHPGKAPKLLIYDVSKRPSGVPDRFSGSKSGNTASLTISGLQAEDEADYYCSSYAEGVQVGFGGGTKLTVL
B18: Ab No. 50 (antibody, V domains shown)
VH: EVQLLESGGGLVQPGGSLRLSCAASGFTFSSYAMSWVRQAPGKGLEWVSAISGSGGSTYYADSVKGRFTISRDNSKNTLYLQMNSLRAEDTAVYYCVRAPGLRFLEYSFDLWGRGTLVTVSS
VL: QSALTQPRSVSGSPGQSVTISCTGTSSDVGGYNYVSWYQQHPGKAPKLLIYDVSKRPSGVPDRFSGSKSGNTASLTISGLQAEDEADYYCSSWAGSYRVAFGGGTKLTVL
B19: Ab No. 51 (antibody, V domains shown)
VH: QVQLQESGPGLVKPSETLSLTCAVSGYSISSGYYWGWIRQPPGKGLEWIGSIYHSGSTYYNPSLKSRVTISVDTSKNQFSLKLSSVTAADTAVYYCARDRGYAAGPGRGTFDYWGQGTLVTVSS
VL: NFVLTQPHSVSESPGKTVTISCTRSSGSIASNYVQWYQQRPGSSPTTVIYEDNQRPSGVPDRFSGSIDSSSNSASLTISGLKTEDEADYYCQSYDSSVHWVFGGGTKLTVL
B20: Ab No. 52 (antibody, V domains shown)
VH: QVQLQESGPGLVKPSETLSLTCAVSGYSISSGYYWGWIRQPPGKGLEWIGSIYHSGSTYYNPSLKSRVTISVDTSKNQFSLKLSSVTAADTAVYYCARDRGYAAGPGRGTFDYWGQGTLVTVSS
VL: NFVLTQPHSVSESPGKTVTISCTRSSGSIASNYVQWYQQRPGSSPTTVIYEDNQRPSGVPDRFSGSIDSSSNSASLTISGLKTEDEADYYCQSYDVDNHWIFGGGTKLTVL
B21: Ab No. 53 (antibody, V domains shown)
VH: QVQLQESGPGLVKPSETLSLTCAVSGYSISSGYYWGWIRQPPGKGLEWIGSIYHSGSTYYNPSLKSRVTISVDTSKNQFSLKLSSVTAADTAVYYCTRVEGYFWSGLHWGQGTLVTVSS
VL: QSALTQPASVSGSPGQSITISCTGTGSDVGGYNYVSWYQQHPGKAPKLIIYEVSNRPSGVSNRFSGSKSGNTASLTISGLQAEDEADYYCSSYTKDNLEFGGGTKLTVL
B22: Ab No. 46a (antibody, V domains shown)
VH: QVQLVQSGAEVKKPGSSVKVSCKASGGTFSATAISWVRQAPGQGLEWMGGIIPISGTAVYAQKFQGRVTITADESTSTAYMELSSLRSEDTAVYYCARHSSSWGTAITSDYWGQGTLVTVSS
VL: QSVLTQPPSVSGAPGQRVTISCTGSGSNIGAGYDVHWYQQLPGTAPKLLIYGNTNRPSGVPDRFSGSKSGTSASLAITGLQAEDEADYYCQSNDNSLRGILFGGGTKLTVL
B23: Ab No. 46b (antibody, V domains shown)
VH: QVQLVQSGAEVKKPGSSVKVSCKASGGTFNTYAISWVRQAPGQGLEWMGGIIPISGTAVYAQKFQGRVTITADESTSTAYMELSSLRSEDTAVYYCARHSSSWGTAITSDYWGQGTLVTVSS
VL: QSVLTQPPSVSGAPGQRVTISCTGSGSNIGAGYDVHWYQQLPGTAPKLLIYGNTNRPSGVPDRFSGSKSGTSASLAITGLQAEDEADYYCQSNDNSLRGILFGGGTKLTVL
B24: Ab No. 46c (antibody, V domains shown)
VH: QVQLVQSGAEVKKPGSSVKVSCKASGGTFADYAISWVRQAPGQGLEWMGGIIPISGTANYAQKFQGRVTITADESTSTAYMELSSLRSEDTAVYYCARHSSSWGTAITSDYWGQGTLVTVSS
VL: QSVLTQPPSVSGAPGQRVTISCTGSGSNIGAGYDVHWYQQLPGTAPKLLIYGNTNRPSGVPDRFSGSKSGTSASLAITGLQAEDEADYYCQSNDNSLRGILFGGGTKLTVL

How the values were obtained:
human CD28 (human) [1] = target: human CD28 (human) (UniProt P10747); assay: affinity maturation of CD28-binding antibodies (Example 10: Discovery of Additional Antibodies that Bind to CD28)
human CD28 (human) [2] = target: human CD28 (human) (UniProt P10747); assay: selection from yeast-presented synthetic human antibody libraries

Binder | binding (human CD28 (human) [1]) | binding (human CD28 (human) [2])
B1 | binds | –
B2 | binds | –
B3 | binds | –
B4 | binds | –
B5 | binds | –
B6 | binds | –
B7 | binds | –
B8 | – | binds
B9 | – | binds
B10 | – | binds
B11 | – | binds
B12 | – | binds
B13 | – | binds
B14 | – | binds
B15 | – | binds
B16 | – | binds
B17 | – | binds
B18 | – | binds
B19 | – | binds
B20 | – | binds
B21 | – | binds
B22 | binds | –
B23 | binds | –
B24 | binds | –
